PubChem BioAssay AID2685 (National Center for Advancing Translational Sciences (NCATS), 2010)
About 2,100 (0.66%) of roughly 320,000 compounds were called active. The inconclusive results got no clear call from the source; some entries with a clear call stand among them for comparison. The call rests on the fitted dose curve; in most records, active means well fitted inhibition curve with a large enough effect in the signal ratio, with a control signal flat (not every such curve was filed as active); inconclusive means small, poorly fitted or top-dose-only effect, or effect the other way, or a change in a side signal; inactive means flat fitted curve, though single readings scatter; the % refers to the signal ratio. Where the call is inconclusive, the potency comes from a doubtful curve fit.

assay: qHTS Assay for Lipid Storage Modulators in Drosophila S3 Cells; details: BODIPY lipid droplet fluorescence, 18-24 h, cells fed with added oleic acid; lipid storage change, negative = inhibition: at 46.1 µM (top of the series) unless noted
How it was run: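 Drosophila S3 cells loaded with oleic acid (400 uM, as added) and compounds at several concentrations; lipid droplets imaged by 488-nm laser-scanning cytometry, 500–530 nm intensity and object ratio to cell channel. Percent activity normalized to 20 uM Triacsin C.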
On the % scale 0 is the no-effect control and ±100 the full control effect; potency means the concentration at half of the fitted maximal effect.

| SMILES | Potency | lipid storage change, negative = inhibition |
| --- | --- | --- |
| CCOC(=O)c1cccc(NC(=O)C2CCN(c3ncnc4c3nc3n4CCCCC3)CC2)c1 | inconclusive: 29.1 µM [falling, single point] |  |
| Cc1cc(OCC(=O)Nc2cc(-c3nn4c(C)nnc4s3)ccc2C)ccc1Cl |  | inconclusive: 57.3% [activator] |
| O=C1c2ccccc2CCc2ccc(Br)cc21 | inconclusive: 7.31 µM [falling, single point] |  |
| CC(OC(=O)CN1C(=O)COc2ccccc21)C(=O)NCc1ccc(F)cc1 (stereo unspecified) |  | inconclusive: -135% |
| CCCc1nnc(NC(=O)CCS(=O)(=O)c2ccccc2)s1 | active: 1.46 µM |  |
| CCOc1cc(/C=N/NC(=O)CSc2nnc(C)s2)ccc1OCc1ccccc1Cl |  | inconclusive: -26.7% |
| O=C(CCN1CCOCC1)c1ccc2c(c1)OCCO2 | inconclusive: 18.4 µM [cytotoxic, single point] |  |
| NNC(=O)c1oc2nc(-c3ccco3)cc(-c3ccco3)c2c1N | inconclusive: 29.1 µM [falling, single point] |  |
| CCOC(=O)c1ccc(-c2csc(NC(=O)CN3CCC(C)CC3)n2)cc1 | active: 2.91 µM |  |
| Cn1c(CCNC(=O)c2ccccc2F)nnc1SCC(=O)Nc1ccccc1F |  | inconclusive: -24.2% |
| Cc1[nH]nc2c1C(c1cn[nH]c1-c1ccc(F)cc1)C(C#N)=C(N)O2 (stereo unspecified) | inconclusive: 23.1 µM [activator, single point] |  |
| CCOc1ccc(NC(=O)CN(C)C(=O)Cn2c(=O)cnc3ccccc32)cc1OCC | inconclusive: 5.17 µM [falling, full curve, poor fit] |  |
| CCc1ccc(CN2CCC(n3nccc3NC(=O)c3ccccc3)CC2)o1 |  | inconclusive: 21.8% |
| C=CCN(CC(=O)NCc1ccc(OC)cc1)C(=O)c1csnn1 | inconclusive: 29.1 µM [activator, single point] |  |
| C=CCOc1ccccc1/C=N/NC(=O)Cc1ccccc1 |  | inconclusive: -46.6% |
| CCN1CCN(c2ccc(S(=O)(=O)N3CCCCC3)cc2NC(=O)c2cccc(F)c2)CC1 |  | inconclusive: 69.8% [at 0.0737 µM] |
| COC(=O)c1cn(-c2nc(C)c3c(n2)CCC3)nn1 |  | inconclusive: 18.9% |
| CC(C)(C)Sc1ccc([N+](=O)[O-])cc1C(=O)Nc1ccncc1 |  | inconclusive: 10.5% |
| Cc1ccc2[nH]c3c(=O)n(CCCN4CCN(C)CC4)cnc3c2c1 | inconclusive: 29.1 µM [falling, single point] |  |
| S=C(NCC1CC1)N/N=C/c1ccccc1Cl |  | inconclusive: 7% |
| Cc1c(C(=O)Oc2cc(N)n(S(C)(=O)=O)n2)cccc1[N+](=O)[O-] | inconclusive: 0.058 µM [cytotoxic, full curve, poor fit] |  |

Single records (already shown).
`Cc1ccc2[nH]c3c(=O)n(CCCN4CCN(C)CC4)cnc3c2c1` in the list: Potency: inconclusive: 29.1 µM [falling, single point]
`CC(OC(=O)CN1C(=O)COc2ccccc21)C(=O)NCc1ccc(F)cc1` (stereo unspecified) in the list: lipid storage change, negative = inhibition: inconclusive: -135%
